Values quoted from earlier work in US20250283035A1, “MORPHOGENIC COMPOUND-RELEASING MICROSPHERES AND USE IN BIOINK” (UVic Industry Partnerships Inc., priority 2018, published 2025).
At least one structure is not confirmed: it was looked up by name or label, or the drawing left a doubt.

Conditions: drug in microspheres, literature values; cited from earlier work

C#C[C@]1(O)CC[C@H]2[C@@H]3CCC4=CC(=O)CC[C@@H]4[C@H]3CC[C@@]21CC [levonorgestrel]
encapsulation efficiency, previously reported: ~22%
